Results: publication PMC3088721, “The Saccharomyces cerevisiae Telomerase Subunit Est3 Binds Telomeres in a Cell Cycle– and Est1–Dependent Manner and Interacts Directly with Est1 In Vitro” (PLoS Genetics, 2011)
These are yes or no findings as the source states them, for the method shown. Sequences can lack the tags named with a protein.

By UniProt entry, the sequences of proteins in these tests, tags left out. Residues count along the entry.
UniProt P02769, residues 25-607: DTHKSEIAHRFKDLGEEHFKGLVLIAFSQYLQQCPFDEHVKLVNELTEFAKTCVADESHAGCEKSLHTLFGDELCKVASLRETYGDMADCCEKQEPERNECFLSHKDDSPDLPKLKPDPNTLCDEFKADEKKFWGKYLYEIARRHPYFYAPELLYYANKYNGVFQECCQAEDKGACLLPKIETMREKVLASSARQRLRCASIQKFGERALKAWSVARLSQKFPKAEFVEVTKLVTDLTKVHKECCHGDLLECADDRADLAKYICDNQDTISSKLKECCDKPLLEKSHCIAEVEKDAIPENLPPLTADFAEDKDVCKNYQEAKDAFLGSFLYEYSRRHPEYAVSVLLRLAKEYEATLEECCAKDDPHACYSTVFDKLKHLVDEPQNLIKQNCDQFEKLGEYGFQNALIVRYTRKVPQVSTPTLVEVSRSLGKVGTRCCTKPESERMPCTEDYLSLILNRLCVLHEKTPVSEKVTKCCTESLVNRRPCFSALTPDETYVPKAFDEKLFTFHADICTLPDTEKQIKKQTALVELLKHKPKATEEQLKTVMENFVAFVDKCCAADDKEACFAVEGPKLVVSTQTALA

Target: T1, Est1, C-terminally strep-tagged (S. cerevisiae, UniProt P17214 1-699)
T1 construct: Est1, telomerase subunit of Saccharomyces cerevisiae; The carboxyl terminal tag consists of a G8 linker, 5x Strep-Tag II and a HAT tag (Clontech); also called Strep-tagged Est1; not shown: 5x Strep-Tag II, C-terminal, kept; HAT tag, C-terminal, kept
T1 sequence (looked up): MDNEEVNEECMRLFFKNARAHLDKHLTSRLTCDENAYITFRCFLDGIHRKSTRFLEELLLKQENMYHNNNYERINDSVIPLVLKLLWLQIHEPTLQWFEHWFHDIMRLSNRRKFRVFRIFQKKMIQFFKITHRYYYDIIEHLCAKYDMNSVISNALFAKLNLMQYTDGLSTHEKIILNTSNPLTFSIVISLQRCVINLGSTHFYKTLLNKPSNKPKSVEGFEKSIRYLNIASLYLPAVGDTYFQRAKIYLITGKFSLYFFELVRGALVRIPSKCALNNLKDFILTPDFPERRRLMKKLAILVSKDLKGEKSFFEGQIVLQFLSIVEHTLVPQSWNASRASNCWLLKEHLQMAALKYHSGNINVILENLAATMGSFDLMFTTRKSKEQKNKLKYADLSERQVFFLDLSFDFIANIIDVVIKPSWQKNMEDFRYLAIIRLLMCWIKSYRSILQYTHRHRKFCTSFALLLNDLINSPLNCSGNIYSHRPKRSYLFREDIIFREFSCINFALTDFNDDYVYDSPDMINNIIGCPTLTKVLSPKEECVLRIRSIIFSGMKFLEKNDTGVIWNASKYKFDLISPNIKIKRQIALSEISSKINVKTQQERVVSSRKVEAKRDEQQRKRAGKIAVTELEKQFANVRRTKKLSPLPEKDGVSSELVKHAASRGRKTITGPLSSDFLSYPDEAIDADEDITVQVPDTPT
Assay: pull-down; magnetic beads pull-down: Est1 captured by its C-terminal strep tag on Dynabeads streptavidin M280; 1 µM each of Est1 and Est3 in 20 mM Tris-HCl pH 7.5, 100 mM NaCl, 0.2% Triton X-100, 20 µg/mL BSA; 15 min on ice, 30 min with beads at 4°C; Coomassie staining; both purified

Substance: BSA (from UniProt P02769 25-607)
- binding: no binding (tested: 20 µg/mL BSA)
